According to PubChem BioAssay (NCATS):
Values joined by “and” are separate entries in the source; they are usually repeats but may differ in a detail not shown here. Identical values can stand only once. The list shows a part of the results. Shown are side measurements of this screen, not its main read-out; they come without a call. For part of these data: Compounds called inactive in the main read-out are mostly missing here. For part of these data: The note in brackets gives the kind of curve behind each potency; many fits are weak.

What was measured:
[1] = qHTS assay for small molecule antagonists of vitamin D receptor signaling (AID 588541); details: HEK293T VDR-UAS-bla, beta-lactamase ratio, antagonist mode; measured here: W460 blue channel (cell viability)
[2] = qHTS assay for small molecule antagonists of androgen receptor signaling (AID 588516); details: AR-UAS-bla HEK293, beta-lactamase ratio, antagonist mode, 16 h
Method in brief: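 Cells were plated and incubated 5 h, compounds added in titration, then R1881 (10 nM final) as agonist. After 16 h at 37 C, CCF4 substrate was loaded for 2 h at room temperature and fluorescence measured.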

[3] = Nrf2 qHTS screen for inhibitors: Validation (AID 493153); details: A549 ARE-Fluc reporter, 18-24 h; AC50: CellTiter-Fluor fluorescence read, measured here: cytotoxicity CellTiter-Fluor AC50; viability change: measured here: cytotoxicity max response
Method in brief: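 Dose-response validation uses reporter A549 cells with firefly luciferase under an antioxidant response element. Compounds stay on cells 18-24 h at 37°C, and luminescence indicates Nrf2-driven transcription.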

[4] = qHTS Validation Assay to Find Inhibitors of Chronic Active B-Cell Receptor Signaling (AID 485345); details: ABC-DLBCL cells, chronic BCR signaling reporter
Method in brief: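 Read-out: ratio of filter-corrected green (IkappaBalpha fusion) to red (native) luciferase signal in doxycycline-induced TMD8 cells after 4 h at 37C. Titration spanned 46 uM–3 nM; Data were normalised to basal cells and 10 uM MG-132 wells.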

[5] = qHTS assay for small molecule antagonists of glucocorticoid receptor signaling (AID 588533); details: HeLa MMTV-bla, GRE beta-lactamase ratio, antagonist mode, 18 h; measured here: W530 channel AC50
[6] = qHTS assay for small molecule antagonists of peroxisome proliferator-activated receptor delta signaling (AID 588535); details: HEK293T PPARd-UAS-bla, beta-lactamase FRET ratio, 18 h; 460 nm channel;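 further: cells co-treated with a PPAR-delta agonist as stimulator during compound exposure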
Method in brief: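 Cell-based beta-lactamase assay in antagonist mode: 4000 HEK293T PPAR-delta-UAS-bla cells per well, 5 hr preincubation then 18 hr compound incubation at 37 C. IC50 obtained by Hill equation fitting.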

[7] = qHTS assay for small molecule agonists of retinoid X receptor alpha signaling (AID 588544); details: HEK293T RXRa-UAS-bla, beta-lactamase reporter, 18 h; 530 nm emission
[8] = qHTS assay for small molecule antagonists of retinoid X receptor alpha signaling (AID 588546); details: HEK293T RXRa-UAS-bla, beta-lactamase ratio, antagonist mode; measured here: W530 green channel, cytotoxicity proxy;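 further: cells stimulated with 9-cis-retinoic acid as agonist; on the % scale 0 is the no-effect control and ±100 the full control effect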
Method in brief: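 Beta-lactamase reporter inhibition, read as CCF4 fluorescence ratio (ex 405, em 460/530 nm) after 2 h at RT. HEK293T UAS-bla cells, 2500/well, were stimulated with 9-cis-RA at 500 or 100 nM final alongside test compound for 18 h at 37 C.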

[9] = qHTS assay for small molecule antagonists of peroxisome proliferator-activated receptor gamma signaling (AID 588537); details: HEK293 PPARg-UAS-bla, beta-lactamase ratio, antagonist mode; measured here: W460 blue channel
Method in brief: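 Inhibitors of agonist-stimulated UAS-bla reporter activity were sought in HEK293 cells; rosiglitazone (50 nM) defined full signal and DMSO baseline. Curves fitted to Hill model gave IC50 and efficacy.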

[10] = qHTS Validation Assay for Iinhibitors of HIV-1 Budding by Blocking the Interaction of PTAP/TSG101 (AID 485342); details: TSG101-PTAP binding, fluorescence polarization, 4-point titration; measured here: FITC channel readout
Method in brief: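 Fluorescence polarization of 50 nM FITC-PTAP peptide bound to 10 uM Tsg101 binding domain was read after 20 min room-temperature incubation with compounds, in 10 mM HEPES pH 7.5, 0.15 M NaCl, 0.01% Tween 20.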

[11] = measured here: W460 blue channel fit
[12] = measured here: CBR control luciferase (viability counter)
[13] = measured here: W530 green channel, cytotoxicity/artifact

For O=C(O)c1cc[c]([Hg][Cl])cc1, the AC50 [1] was 50.1 µM [falling, single point].
With CC(=O)[C@H]1CC[C@H]2[C@@H]3CCC4=CC(=O)CC[C@]4(C)[C@H]3CC[C@]12C the AC50 [1] was 12.6 µM [rising, full curve, poor fit] and 14.1 µM [rising, full curve, poor fit].
For CCCCOC(=O)c1ccccc1C(=O)O, the AC50 [2, 11] was 0.355 µM [rising, full curve, poor fit].
In the case of C[C@]12CC[C@@H]3c4ccc(O)cc4C[C@@H](CCCCCCCCCS(=O)CCCC(F)(F)C(F)(F)F)[C@H]3[C@@H]1CC[C@@H]2O (some centres undefined), the viability change [3] is reported as -15.2%.
In the case of COc1ccc2c(c1)c(CCN1CCOCC1)c(C)n2C(=O)c1cccc(Cl)c1Cl, the AC50 ([4]; measured here: CBG/CBR ratio read-out) is reported as 2.06 µM [falling, full curve], the AC50 [4, 12] is reported as 1.84 µM [rising, partial curve] and the viability change [3] is reported as 4%.
For Cc1ccc(-c2c(Cl)nc(C#N)n2S(=O)(=O)N(C)C)cc1, the AC50 [2, 11] was 2.51 µM [rising, partial curve], the AC50 [2, 13] was 44.7 µM [rising, single point] and the AC50 [5] was 5.62 µM [rising, partial curve, poor fit]. For the same compound, the max response [6] was -16.3%, the AC50 [1] was 0.891 µM [rising, full curve, poor fit] and the max response [7] was 30.9%. The max response [8] was 20%.
In the case of c1ccc2cc3c(cc2c1)-c1cccc2cccc-3c12, the AC50 [2, 11] is reported as 31.6 µM [rising, partial curve] and 5.62 µM [rising, full curve], the AC50 [2, 13] is reported as 7.94 µM [rising, full curve] and 8.91 µM [rising, full curve] and the AC50 [5] is reported as 15.8 µM [rising, partial curve, poor fit] and 14.1 µM [rising, partial curve, poor fit]. The AC50 [9] was 15.8 µM [rising, partial curve, poor fit] and 1.78 µM [rising, full curve], the AC50 [1] was 2.51 µM [rising, full curve] and 4.47 µM [rising, full curve] and the max response [7] was 33.6%. The max response [8] was 39.5% and 21.7%.
In the case of CCCN1CCO[C@@H]2c3cc(O)ccc3OC[C@H]21, the AC50 [4, 12] is reported as 6.51 µM [rising, single point].
For C[C@@H]1CC[C@@]2(OC1)O[C@H]1[C@@H](O)[C@H]3[C@@H]4CC[C@H]5C[C@@H](O[C@@H]6O[C@H](CO)[C@H](O[C@@H]7O[C@H](CO)[C@@H](O)[C@H](O[C@@H]8OC[C@@H](O)[C@H](O)[C@H]8O)[C@H]7O[C@@H]7O[C@H](CO)[C@@H](O)[C@H](O[C@@H]8O[C@H](CO)[C@@H](O)[C@H](O)[C@H]8O)[C@H]7O)[C@H](O)[C@H]6O)[C@H](O)C[C@]5(C)[C@H]4CC[C@]3(C)[C@H]1[C@@H]2C, the AC50 [2, 11] was 22.4 µM [falling, partial curve], the AC50 [2, 13] was 17.8 µM [falling, full curve] and the AC50 [5] was 35.5 µM [falling, partial curve]. For the same compound, the max response [6] was -80.7%, the AC50 [9] was 39.8 µM [falling, partial curve] and the AC50 [1] was 44.7 µM [falling, partial curve, poor fit]. It also gave a max response [7] of -63.7% and a max response [8] of -42.7%.
For [Cl][Sn]([c]1ccccc1)([c]1ccccc1)[c]1ccccc1, the AC50 [2, 11] was 3.55 µM [falling, full curve], the AC50 [2, 13] was 1.58 µM [rising, full curve] and the AC50 [5] was 50.1 µM [falling, partial curve, poor fit]. For the same compound, the max response [6] was -89.2%, the AC50 [9] was 3.98 µM [falling, full curve] and the max response [7] was -34.7%. For the same compound, the max response [8] was -52.9%.
For O=Nc1ccc(Nc2ccccc2)cc1, the AC50 [2, 11] was 50.1 µM [falling, partial curve, poor fit] and 44.7 µM [falling, partial curve, poor fit], the AC50 [2, 13] was 44.7 µM [rising, single point] and 44.7 µM [rising, partial curve] and the max response [6] was -52.7% and -81.2%. The AC50 [9] was 50.1 µM [falling, partial curve, poor fit], the AC50 [1] was 25.1 µM [falling, full curve, poor fit] and 22.4 µM [falling, full curve] and the max response [7] was 43.4% and -3.82%. The max response [8] was 54.6% and -34.6%.
In the case of CCCSP(=O)(OCC)SCCC, the AC50 [2, 13] is reported as 6.31 µM [falling, full curve, poor fit].
In the case of CC[C@@H](CO)NC(=O)[C@@H]1C=C2c3cccc4[nH]cc(c34)C[C@H]2N(C)C1, the AC50 [10] is reported as 44.7 µM [falling, partial curve].
In the case of N#CSCSC#N, the AC50 [2, 11] is reported as 44.7 µM [falling, partial curve] and 25.1 µM [falling, full curve], the AC50 [2, 13] is reported as 50.1 µM [rising, partial curve, poor fit] and 28.2 µM [rising, single point] and the AC50 [5] is reported as 31.6 µM [falling, single point] and 39.8 µM [falling, partial curve, poor fit]. The max response [6] was -117%, the AC50 [9] was 39.8 µM [falling, partial curve, poor fit] and 28.2 µM [falling, full curve] and the AC50 [1] was 12.6 µM [falling, full curve, poor fit] and 10 µM [falling, full curve]. The max response [7] was -26.9% and -38% and the max response [8] was -29.3% and -49.2%.
